From patent US12215153
These are yes or no findings as the source states them, for the method shown. Some binding calls cover weakened binding; strength is not graded here.

Legend:
[1] = target: T1, mouse RELT protein (receptor expressed on lymphoid tissues) (mouse) (UniProt Q8BX43); experiment: western blot of mouse CD4+ cell total protein, primary antibody 0.5 ug/mL
T1 sequence (looked up): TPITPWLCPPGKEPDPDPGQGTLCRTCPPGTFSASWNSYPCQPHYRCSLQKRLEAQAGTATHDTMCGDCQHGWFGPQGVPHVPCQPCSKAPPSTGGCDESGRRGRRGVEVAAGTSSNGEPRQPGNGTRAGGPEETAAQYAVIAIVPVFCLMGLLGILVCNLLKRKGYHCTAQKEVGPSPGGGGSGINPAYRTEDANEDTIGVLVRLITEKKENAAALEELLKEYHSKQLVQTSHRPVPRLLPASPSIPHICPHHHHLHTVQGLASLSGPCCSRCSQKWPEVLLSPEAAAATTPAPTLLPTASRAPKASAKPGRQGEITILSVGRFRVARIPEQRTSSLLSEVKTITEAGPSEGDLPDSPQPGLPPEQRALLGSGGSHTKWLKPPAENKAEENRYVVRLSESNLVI

[2] = target: T1, mouse RELT protein (receptor expressed on lymphoid tissues) (mouse); experiment: immunofluorescence on paraffin sections of mouse pancreas, primary antibody 10 ng/mL
[3] = target: T2, RELT antigen polypeptide of 32 aa to 169 aa (SEQ ID NO: 1); experiment: ELISA of single B cell clone culture supernatant on the antigen
T2 sequence (peptide): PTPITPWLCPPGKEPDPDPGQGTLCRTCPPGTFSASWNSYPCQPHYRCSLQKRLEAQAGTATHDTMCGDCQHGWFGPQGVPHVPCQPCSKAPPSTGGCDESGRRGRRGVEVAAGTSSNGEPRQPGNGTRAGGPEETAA

Measured: binding

B1: anti-RELT recombinant rabbit monoclonal antibody E19399-5B2 (antibody)
heavy: QSVKESGGGLFKPTDTLTLTCTVSGFSLSTYAMSWVRQTPGIGLEWIGIVNVAGDTAYASWAMSRSTITRNTNDNTVTLKMTSLTAADTATYFCTRHGENIGDMWGPGTLIAVSSVPATPPIIFPLTCPGCVLKDTSATIVAGCLVKGYLPEPVTVTWNSGTLTNGVRTFPSVRQSSGLYSLSSVVSVTSSSQPVTCNVAHPATNTKVDKTVAPSTCSKPMCPPPELPGGPSVFIFPPKPKDTLMISRTPEVTCVVVDVSQDDPEVQFTWYINNEQVRTARPPLREQQFNSTIRVVSTLPIAHQDWLRGKEFKCKVHNKALPAPIEKTISKARGQPLEPKVYTMGPPREELSSRSVSLTCMINGFYPSDISVEWEKNGKAEDNYKTTPTVLDSDGSYFLYSKLSVPTSEWQRGDVFTCSVMHEALHNHYTQKSISRSPGK
light: DPVMTQTPSSTSAAVGGTVTINCQASQSVYANNYLSWFQKKPGQPPKQLIYDASTLASGVPSRFKGSGSGTQFTLTISGVQCDDAAAYYCAGGFTGAIFPFGGGTEVVVKGDPVAPTVLIFPPAADQVATGTVTIVCVANKYFPDVTVTWEVDG
binds: all assays above
